Experimental findings from paper PMC10656286 are described below.

Chains of the proteins cited; added tags and fusions are not shown.
UniProt Q96CT2: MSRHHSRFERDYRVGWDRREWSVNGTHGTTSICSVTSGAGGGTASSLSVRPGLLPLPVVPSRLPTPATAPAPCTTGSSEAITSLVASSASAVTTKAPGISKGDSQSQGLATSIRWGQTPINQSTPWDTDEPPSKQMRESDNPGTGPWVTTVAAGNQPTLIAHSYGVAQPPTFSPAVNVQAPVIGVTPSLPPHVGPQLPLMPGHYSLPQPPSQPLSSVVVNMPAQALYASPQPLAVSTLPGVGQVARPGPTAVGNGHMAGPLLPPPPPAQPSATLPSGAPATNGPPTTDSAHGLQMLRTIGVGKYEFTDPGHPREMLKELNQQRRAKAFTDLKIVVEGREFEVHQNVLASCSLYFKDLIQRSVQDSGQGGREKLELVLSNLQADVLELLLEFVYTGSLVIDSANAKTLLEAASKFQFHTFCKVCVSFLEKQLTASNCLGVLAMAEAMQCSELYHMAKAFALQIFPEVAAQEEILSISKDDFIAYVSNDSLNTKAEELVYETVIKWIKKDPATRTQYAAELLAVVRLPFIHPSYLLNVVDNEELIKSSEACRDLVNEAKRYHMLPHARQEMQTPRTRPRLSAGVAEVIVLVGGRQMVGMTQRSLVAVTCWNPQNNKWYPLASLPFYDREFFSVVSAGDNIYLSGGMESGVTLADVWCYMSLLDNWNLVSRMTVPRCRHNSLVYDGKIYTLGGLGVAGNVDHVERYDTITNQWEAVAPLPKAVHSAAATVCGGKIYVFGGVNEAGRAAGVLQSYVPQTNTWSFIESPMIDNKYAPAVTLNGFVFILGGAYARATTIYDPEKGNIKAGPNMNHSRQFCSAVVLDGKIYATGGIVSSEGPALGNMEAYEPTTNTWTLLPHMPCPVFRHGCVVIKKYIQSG
UniProt O00571: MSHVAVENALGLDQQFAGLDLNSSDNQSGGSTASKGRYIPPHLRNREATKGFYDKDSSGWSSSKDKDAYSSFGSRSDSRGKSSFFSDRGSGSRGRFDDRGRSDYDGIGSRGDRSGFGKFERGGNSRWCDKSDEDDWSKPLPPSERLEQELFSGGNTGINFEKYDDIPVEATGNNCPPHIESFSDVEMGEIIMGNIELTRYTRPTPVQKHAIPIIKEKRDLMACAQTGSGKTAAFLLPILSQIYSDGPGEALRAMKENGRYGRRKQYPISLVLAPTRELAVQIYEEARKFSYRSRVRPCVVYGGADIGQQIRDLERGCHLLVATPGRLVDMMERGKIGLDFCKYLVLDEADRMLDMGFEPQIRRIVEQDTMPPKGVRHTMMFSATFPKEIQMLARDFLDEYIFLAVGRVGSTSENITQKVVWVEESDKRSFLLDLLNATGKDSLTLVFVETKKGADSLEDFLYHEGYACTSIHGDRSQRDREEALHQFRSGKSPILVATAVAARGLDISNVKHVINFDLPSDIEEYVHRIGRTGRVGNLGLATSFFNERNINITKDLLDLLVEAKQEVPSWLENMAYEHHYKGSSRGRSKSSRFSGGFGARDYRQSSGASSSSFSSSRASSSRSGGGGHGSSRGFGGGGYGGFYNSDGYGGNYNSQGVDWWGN

The target in this assay is Flag-KLHL29 (pCDH-Flag-KLHL29, stably expressed) (UniProt Q96CT2). The experiment in a line: affinity purification with mass spectrometry; IP from BT549 and CAL51 cells stably expressing pCDH-Flag or pCDH-Flag-KLHL29, followed by MS analysis.

No constants are given. Whether binding was seen depends on the method and setting. Binding seen in cells or lysates may run through a third protein. Here binding means that the protein was enriched with, or labelled near, the bait; the list need not be complete.

“DDX3X (endogenous, BT549 and CAL51) (from UniProt O00571 1-662)”: the binding entry was “binds”.
